This is one part of the list. Repeats are few or missing, and single values can be far off.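 Cells were imaged in 1,536-well plates, and nuclei stained with an antibody against cleaved PARP were counted against all DNA-stained nuclei to give the apoptosis fraction. Screening doses were chosen to leave most cells alive, and resting and induced cleaved-PARP levels differ strongly between cell lines.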
Assays:
Assay in all cases: cleaved PARP positive nuclei fraction relative to DMSO control; melanoma cells; higher = more apoptosis
Conditions in all cases: library dose: low library concentration; 72 h
501Mel = system: 501Mel
A101D = system: A101D
A2058 = system: A2058
C32 = system: C32
CBRC008 = system: CBRC008 (line from a melanoma biopsy)
CBRC014 = system: CBRC014 (line from a melanoma biopsy)
CBRC016 = system: CBRC016 (line from a melanoma biopsy)
CBRC017 = system: CBRC017 (line from a melanoma biopsy)
COLO792 = system: COLO792
COLO800 = system: COLO800
COLO829 = system: COLO829
G361 = system: G361
IPC-298 = system: IPC-298
IST-MEL1 = system: IST-MEL1
LB2518-MEL = system: LB2518-MEL
LOXIMVI = system: LOXIMVI
A375 = system: A375
CBRC034 = system: CBRC034 (line from a melanoma biopsy)
MEL-HO = system: MEL-HO

SMILES | cleaved PARP positive nuclei fraction (501Mel) [%] | cleaved PARP positive nuclei fraction (A101D) [%] | cleaved PARP positive nuclei fraction (A2058) [%] | cleaved PARP positive nuclei fraction (C32) [%] | cleaved PARP positive nuclei fraction (CBRC008) [%] | cleaved PARP positive nuclei fraction (CBRC014) [%] | cleaved PARP positive nuclei fraction (CBRC016) [%] | cleaved PARP positive nuclei fraction (CBRC017) [%] | cleaved PARP positive nuclei fraction (COLO792) [%] | cleaved PARP positive nuclei fraction (COLO800) [%] | cleaved PARP positive nuclei fraction (COLO829) [%] | cleaved PARP positive nuclei fraction (G361) [%] | cleaved PARP positive nuclei fraction (IPC-298) [%] | cleaved PARP positive nuclei fraction (IST-MEL1) [%] | cleaved PARP positive nuclei fraction (LB2518-MEL) [%] | cleaved PARP positive nuclei fraction (LOXIMVI) [%] | cleaved PARP positive nuclei fraction (A375) [%] | cleaved PARP positive nuclei fraction (CBRC034) [%] | cleaved PARP positive nuclei fraction (MEL-HO) [%]
O=C(O)[C@@H]1[O][Sb](=[O])([O][Sb]2(=[O])[O][C@H]([C@H](O)CO)[C@H](O)[C@H](C(=O)O)[O]2)[O][C@H]([C@H](O)CO)[C@@H]1O (stereo not given in full) [stibogluconate] + CCCCCCCCCCCC1=C(O)C(=O)C=C(O)C1=O [Embelin] (first compound 2 µM, partner dose 1.2 µM) | 303 | 5250 | 60.9 | 225 | 96.6 | 94.6 | 80.4 | 137 | 67.3 | 65.8 | 21.5 | 118 | 43.8 | 24.8 | 74.6 | 21.7 | – | – | –
CCCS(=O)(=O)Nc1ccc(F)c(C(=O)c2c[nH]c3ncc(Cl)cc23)c1F + COc1cc(N2CCC(N3CCN(C)CC3)CC2)ccc1Nc1ncc(Cl)c(Nc2ccccc2S(=O)(=O)C(C)C)n1 [NVP-TAE684] (first compound 0.08 µM, partner dose 0.08 µM) | 117 | 15.6 | 145 | 128 | 32.1 | 116 | 63.3 | 88.2 | 58.2 | 133 | 114 | 121 | 50.7 | 80.2 | 61.5 | 737 | – | – | –
CS(=O)(=O)CCNCc1ccc(-c2ccc3ncnc(Nc4ccc(OCc5cccc(F)c5)c(Cl)c4)c3c2)o1 [lapatinib] + CCCCCCCCCCCC1=C(O)C(=O)C=C(O)C1=O [Embelin] (first compound 0.8 µM, partner dose 1.2 µM) | 86.5 | 11 | 117 | 71.9 | 126 | 90.7 | 21.2 | 75.6 | 92.4 | 141 | 49.1 | 156 | 178 | 103 | 32 | 105 | – | – | –
CCCS(=O)(=O)Nc1ccc(F)c(C(=O)c2c[nH]c3ncc(Cl)cc23)c1F + Cc1cc([N+](=O)[O-])ccc1NS(=O)(=O)c1cc(Cl)ccc1Cl [FH535] (first compound 0.08 µM, partner dose 1 µM) | 59.1 | 51 | 80.8 | 69.7 | 546 | 133 | 1430 | 368 | 125 | 104 | 44.2 | 129 | 207 | 156 | 178 | 106 | – | – | –
Nc1nc(F)nc2c1ncn2[C@@H]1O[C@H](CO)[C@@H](O)[C@@H]1O [fludarabine] + Oc1cc(-c2nc(-c3ccccc3)[nH]c2-c2ccncc2)ccc1Cl [L779450] (first compound 0.2 µM, partner dose 0.2 µM) | 486 | 30.3 | 73.1 | 53.6 | 74 | 128 | 113 | 90.1 | 148 | 43.1 | 63.9 | 52.1 | 169 | 93 | 432 | 220 | – | – | –
Cn1c(=O)n(-c2ccc(C(C)(C)C#N)cc2)c2c3cc(-c4cnc5ccccc5c4)ccc3ncc21 + O=C(Nc1ccccc1)c1cc([N+](=O)[O-])ccc1Cl [GW9662] (first compound 0.004 µM, partner dose 2 µM) | 121 | 28.6 | 99.1 | 20.9 | 122 | 102 | 98.2 | 101 | 109 | 97.6 | 55.4 | 113 | 153 | 41.8 | 64.1 | 42.8 | – | – | –
Cc1cc(Nc2cc(N3CCN(C)CC3)nc(/C=C/c3ccccc3)n2)n[nH]1 + CC(C)CCN1c2nc(Nc3cc(F)c(O)c(F)c3)ncc2N(C)C(=O)C1C [BID1870] (first compound 0.04 µM, partner dose 0.2 µM) | 78.4 | 12.6 | 57.8 | 105 | 247 | 120 | 94 | 110 | 92 | 273 | 68.5 | 116 | 89.7 | 107 | 65.5 | 97.9 | – | – | –
CN1CCN(c2ccc3nc(-c4c(N)c5c(F)cccc5[nH]c4=O)[nH]c3c2)CC1 [Dovitinib] + O=c1cc(-c2cccc3c2Sc2ccccc2S3)oc(N2CCOCC2)c1 [KU55933] (first compound 0.1 µM, partner dose 1 µM) | 81.4 | 27.9 | 158 | 51.7 | 40.1 | 99.7 | 134 | 159 | 53.3 | 44.4 | 70.6 | 36.9 | 46.2 | 132 | 73.1 | 130 | – | – | –
CN1CCN(c2ccc3nc(-c4c(N)c5c(F)cccc5[nH]c4=O)[nH]c3c2)CC1 [Dovitinib] + Oc1nc(-c2ccc(C(F)(F)F)cc2)nc2c1CSCC2 [XAV939] (first compound 0.1 µM, partner dose 2 µM) | 59.2 | 31.9 | 185 | 166 | 108 | 107 | 127 | 95.3 | 140 | 113 | 67.6 | 133 | 83.3 | 151 | 38.1 | 127 | – | – | –
CS(=O)(=O)CCNCc1ccc(-c2ccc3ncnc(Nc4ccc(OCc5cccc(F)c5)c(Cl)c4)c3c2)o1 [lapatinib] + COc1cc(N2CCC(N3CCN(C)CC3)CC2)ccc1Nc1ncc(Cl)c(Nc2ccccc2S(=O)(=O)C(C)C)n1 [NVP-TAE684] (first compound 0.8 µM, partner dose 0.08 µM) | 158 | 38.2 | 76.7 | 40.2 | 104 | 87.1 | 56.7 | 198 | 192 | 72.4 | 129 | 76.4 | 49 | 113 | 61.6 | 50.7 | – | – | –
O=C(O)c1ccc2c(c1)nc(Nc1cccc(Cl)c1)c1ccncc12 + CC(C)CCN1c2nc(Nc3cc(F)c(O)c(F)c3)ncc2N(C)C(=O)C1C [BID1870] (first compound 0.4 µM, partner dose 0.2 µM) | 75.5 | 12.2 | 44.6 | 240 | 244 | 184 | 294 | 219 | 18.1 | 48.1 | 165 | 80.9 | 128 | 92.4 | 35.1 | 84.5 | – | – | –
Nc1ccn([C@@H]2O[C@H](CO)[C@@H](O)C2(F)F)c(=O)n1 [gemcitabine] + O=C(O)C(=O)Nc1sc2c(c1C(=O)O)CCNC2 [TCS401] (first compound 0.0004 µM, partner dose 1.66667 µM) | 33.8 | 43.3 | 125 | 80.7 | 227 | 129 | 158 | 122 | 149 | 149 | 118 | 75.8 | 70 | 143 | 80.7 | 81.3 | – | – | –
C=C(c1ccc(C(=O)O)cc1)c1cc2c(cc1C)C(C)(C)CCC2(C)C [Bexarotene] + Oc1cc(-c2nc(-c3ccccc3)[nH]c2-c2ccncc2)ccc1Cl [L779450] (first compound 2 µM, partner dose 0.2 µM) | 74.6 | 24 | 57.1 | 116 | 250 | 90.8 | 53.7 | 218 | 93.9 | 22.1 | 97.6 | 118 | 52.3 | 149 | 83.7 | 23.8 | – | – | –
CNC(=O)c1cc(Oc2ccc(NC(=O)Nc3ccc(Cl)c(C(F)(F)F)c3)cc2)ccn1 [sorafenib] + N#Cc1c(O)c2c(-c3ccc(-c4ccccc4O)cc3)csc2[nH]c1=O [A769662] (first compound 0.4 µM, partner dose 2 µM) | 60.8 | 64.4 | 53.2 | 89.2 | 180 | 80.4 | 122 | 76.8 | 62 | 87.9 | 120 | 112 | 98.6 | 43.1 | 213 | 58.7 | – | – | –
CC(C)C[C@H](NC(=O)[C@H](Cc1ccccc1)NC(=O)c1cnccn1)B(O)O [Bortezomib] + Cn1cc(/C=C2\C(=O)Nc3cccnc32)c2ccccc21 [GW441756] (first compound 0.001 µM, partner dose 0.4 µM) | 193 | 105 | 128 | 122 | 376 | 370 | 1170 | 94.7 | 49.8 | 18.2 | 148 | 3770 | 152 | 140 | 948 | 116 | – | – | –
Cc1cc(Nc2cc(N3CCN(C)CC3)nc(/C=C/c3ccccc3)n2)n[nH]1 + C[C@@H](Oc1cc(-c2cnn(C3CCNCC3)c2)cnc1N)c1c(Cl)ccc(F)c1Cl [Crizotinib] (first compound 0.04 µM, partner dose 0.2 µM) | 183 | 50.8 | 155 | – | 195 | 208 | 122 | 115 | 112 | 66 | 59.9 | 120 | 55.7 | 96.8 | 102 | 142 | 128 | 60.4 | 61.9
CN1CCN(c2ccc3nc(-c4c(N)c5c(F)cccc5[nH]c4=O)[nH]c3c2)CC1 [Dovitinib] + CCc1ccc(CCOc2ccc(CC3SC(=O)NC3=O)cc2)nc1 [pioglitazone] (first compound 0.1 µM, partner dose 2 µM) | 145 | 29.7 | 182 | 164 | 138 | 90.5 | 78 | 269 | 107 | 129 | 71.6 | 140 | 292 | 223 | 83 | 96.5 | – | – | –
Nc1ncn([C@H]2C[C@H](O)[C@@H](CO)O2)c(=O)n1 [decitabine] + CCN(CC)CCCCNc1ncc2cc(-c3cc(OC)cc(OC)c3)c(NC(=O)NC(C)(C)C)nc2n1 [PD173074] (first compound 0.1 µM, partner dose 0.1 µM) | 67.3 | 9.97 | 73.8 | 44.2 | 290 | 117 | 73.1 | 102 | 137 | 41.8 | 336 | 150 | 166 | 168 | 73.8 | 151 | – | – | –

Single values from above.
Entry of CNC(=O)c1cc(Oc2ccc(NC(=O)Nc3ccc(Cl)c(C(F)(F)F)c3)cc2)ccn1 [sorafenib] + N#Cc1c(O)c2c(-c3ccc(-c4ccccc4O)cc3)csc2[nH]c1=O [A769662] (first compound 0.4 µM, partner dose 2 µM) under cleaved PARP positive nuclei fraction (CBRC017) [%]: 76.8
Entry of CCCS(=O)(=O)Nc1ccc(F)c(C(=O)c2c[nH]c3ncc(Cl)cc23)c1F + COc1cc(N2CCC(N3CCN(C)CC3)CC2)ccc1Nc1ncc(Cl)c(Nc2ccccc2S(=O)(=O)C(C)C)n1 [NVP-TAE684] (first compound 0.08 µM, partner dose 0.08 µM) under cleaved PARP positive nuclei fraction (A101D) [%]: 15.6

— the supplement of paper PMC4604168 (melanoma cell lines)
